# Results from PubChem BioAssay (EPA / NIEHS).
# The chains behind the UniProt entries cited, without tags or fusion partners. Where a name states a change or a piece, a line headed by the entry shows the natural chain unless it says otherwise.
# UniProt Q14790: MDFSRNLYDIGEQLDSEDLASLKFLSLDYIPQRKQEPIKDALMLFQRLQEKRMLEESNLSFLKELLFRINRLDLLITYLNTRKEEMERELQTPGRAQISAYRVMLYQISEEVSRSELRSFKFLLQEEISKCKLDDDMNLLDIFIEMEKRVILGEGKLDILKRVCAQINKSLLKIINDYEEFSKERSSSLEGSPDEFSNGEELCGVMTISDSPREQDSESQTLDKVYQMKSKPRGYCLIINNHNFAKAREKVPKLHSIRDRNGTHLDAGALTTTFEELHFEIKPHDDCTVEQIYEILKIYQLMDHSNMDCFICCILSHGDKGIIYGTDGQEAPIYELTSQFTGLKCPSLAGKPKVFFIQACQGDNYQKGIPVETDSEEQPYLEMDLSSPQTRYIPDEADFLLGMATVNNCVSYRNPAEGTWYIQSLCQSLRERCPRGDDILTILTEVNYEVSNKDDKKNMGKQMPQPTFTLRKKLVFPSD
# UniProt P07333, whole entry, looked up: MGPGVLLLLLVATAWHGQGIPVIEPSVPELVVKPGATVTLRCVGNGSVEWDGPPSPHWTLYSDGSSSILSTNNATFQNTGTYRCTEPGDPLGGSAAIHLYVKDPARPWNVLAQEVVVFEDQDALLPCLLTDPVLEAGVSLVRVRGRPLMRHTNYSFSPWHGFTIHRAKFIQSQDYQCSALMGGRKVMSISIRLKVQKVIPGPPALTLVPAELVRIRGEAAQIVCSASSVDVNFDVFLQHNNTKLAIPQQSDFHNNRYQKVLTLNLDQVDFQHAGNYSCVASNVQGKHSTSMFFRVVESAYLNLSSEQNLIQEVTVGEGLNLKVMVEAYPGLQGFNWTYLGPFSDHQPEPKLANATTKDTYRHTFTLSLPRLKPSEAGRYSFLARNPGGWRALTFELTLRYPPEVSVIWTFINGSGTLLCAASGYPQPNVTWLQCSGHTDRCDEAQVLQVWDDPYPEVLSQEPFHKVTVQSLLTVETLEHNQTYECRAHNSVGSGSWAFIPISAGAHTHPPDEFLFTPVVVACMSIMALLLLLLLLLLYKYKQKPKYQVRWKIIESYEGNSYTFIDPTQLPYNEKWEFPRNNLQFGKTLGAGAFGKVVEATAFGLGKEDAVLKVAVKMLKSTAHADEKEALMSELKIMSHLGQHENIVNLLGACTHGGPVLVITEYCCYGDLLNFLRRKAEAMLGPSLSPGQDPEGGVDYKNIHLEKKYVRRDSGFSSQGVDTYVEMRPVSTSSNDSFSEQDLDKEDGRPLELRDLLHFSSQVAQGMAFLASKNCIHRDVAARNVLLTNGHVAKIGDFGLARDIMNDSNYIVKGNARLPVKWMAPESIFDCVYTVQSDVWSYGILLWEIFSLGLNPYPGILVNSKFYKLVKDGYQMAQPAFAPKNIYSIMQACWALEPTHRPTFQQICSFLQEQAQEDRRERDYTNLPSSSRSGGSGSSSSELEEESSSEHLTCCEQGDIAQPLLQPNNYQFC
# UniProt P29317, whole entry, looked up: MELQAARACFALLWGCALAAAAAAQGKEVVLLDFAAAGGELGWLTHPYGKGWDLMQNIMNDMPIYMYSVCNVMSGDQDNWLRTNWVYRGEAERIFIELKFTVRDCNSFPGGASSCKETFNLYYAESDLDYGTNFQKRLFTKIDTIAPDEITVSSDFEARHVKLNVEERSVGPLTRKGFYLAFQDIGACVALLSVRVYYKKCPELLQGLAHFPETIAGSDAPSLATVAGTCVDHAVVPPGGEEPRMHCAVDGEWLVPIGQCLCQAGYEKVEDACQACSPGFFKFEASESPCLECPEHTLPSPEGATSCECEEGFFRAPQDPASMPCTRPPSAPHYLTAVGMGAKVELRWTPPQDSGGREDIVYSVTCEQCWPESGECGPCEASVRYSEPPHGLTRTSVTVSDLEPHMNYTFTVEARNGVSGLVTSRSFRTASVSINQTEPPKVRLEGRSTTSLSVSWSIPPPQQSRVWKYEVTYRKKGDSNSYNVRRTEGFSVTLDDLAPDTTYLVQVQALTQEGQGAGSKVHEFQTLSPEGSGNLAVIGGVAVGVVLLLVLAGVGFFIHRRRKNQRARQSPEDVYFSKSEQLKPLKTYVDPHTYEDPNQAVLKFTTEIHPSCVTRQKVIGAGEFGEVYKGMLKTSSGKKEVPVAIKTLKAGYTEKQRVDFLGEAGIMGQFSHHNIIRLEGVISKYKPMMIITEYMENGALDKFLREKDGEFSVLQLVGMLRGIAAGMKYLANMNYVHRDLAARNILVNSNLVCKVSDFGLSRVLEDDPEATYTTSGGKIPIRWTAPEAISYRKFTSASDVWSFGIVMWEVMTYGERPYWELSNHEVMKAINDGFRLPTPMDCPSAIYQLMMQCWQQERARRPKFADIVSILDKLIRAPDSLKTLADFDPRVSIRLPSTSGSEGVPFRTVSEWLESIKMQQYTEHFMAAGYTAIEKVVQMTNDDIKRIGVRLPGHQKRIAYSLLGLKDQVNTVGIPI
# UniProt P08246: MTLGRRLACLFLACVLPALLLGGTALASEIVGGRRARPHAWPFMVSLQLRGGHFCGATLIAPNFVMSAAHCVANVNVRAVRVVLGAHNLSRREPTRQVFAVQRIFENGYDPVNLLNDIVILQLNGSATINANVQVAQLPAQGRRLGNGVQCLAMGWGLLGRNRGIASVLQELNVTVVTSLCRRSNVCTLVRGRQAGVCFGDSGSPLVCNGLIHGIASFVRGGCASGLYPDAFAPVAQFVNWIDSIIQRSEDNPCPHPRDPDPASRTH
# UniProt P21709: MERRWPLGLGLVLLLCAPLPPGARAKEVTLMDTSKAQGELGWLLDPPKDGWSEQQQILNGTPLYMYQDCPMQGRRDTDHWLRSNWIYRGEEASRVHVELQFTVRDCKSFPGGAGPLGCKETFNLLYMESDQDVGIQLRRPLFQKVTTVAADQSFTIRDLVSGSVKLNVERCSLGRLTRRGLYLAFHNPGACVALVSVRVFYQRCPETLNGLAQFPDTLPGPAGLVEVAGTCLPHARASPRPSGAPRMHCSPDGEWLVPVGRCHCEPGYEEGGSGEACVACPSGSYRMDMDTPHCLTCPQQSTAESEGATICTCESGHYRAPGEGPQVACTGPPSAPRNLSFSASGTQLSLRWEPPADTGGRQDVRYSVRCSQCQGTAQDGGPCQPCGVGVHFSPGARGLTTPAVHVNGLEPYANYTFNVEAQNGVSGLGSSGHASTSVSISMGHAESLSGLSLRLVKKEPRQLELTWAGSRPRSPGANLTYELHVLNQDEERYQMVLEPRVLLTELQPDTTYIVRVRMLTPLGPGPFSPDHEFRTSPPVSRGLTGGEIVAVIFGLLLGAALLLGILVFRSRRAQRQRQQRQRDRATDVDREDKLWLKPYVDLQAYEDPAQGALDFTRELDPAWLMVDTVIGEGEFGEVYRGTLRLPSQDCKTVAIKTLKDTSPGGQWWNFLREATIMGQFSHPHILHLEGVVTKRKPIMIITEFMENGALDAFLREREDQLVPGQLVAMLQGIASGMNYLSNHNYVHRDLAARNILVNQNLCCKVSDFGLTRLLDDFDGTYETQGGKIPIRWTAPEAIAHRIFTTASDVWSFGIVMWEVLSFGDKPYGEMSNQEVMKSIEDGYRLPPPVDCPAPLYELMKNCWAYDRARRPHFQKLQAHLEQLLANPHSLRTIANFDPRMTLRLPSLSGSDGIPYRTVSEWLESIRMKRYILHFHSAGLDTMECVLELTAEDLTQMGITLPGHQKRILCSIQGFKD
# UniProt P68400, whole entry, looked up: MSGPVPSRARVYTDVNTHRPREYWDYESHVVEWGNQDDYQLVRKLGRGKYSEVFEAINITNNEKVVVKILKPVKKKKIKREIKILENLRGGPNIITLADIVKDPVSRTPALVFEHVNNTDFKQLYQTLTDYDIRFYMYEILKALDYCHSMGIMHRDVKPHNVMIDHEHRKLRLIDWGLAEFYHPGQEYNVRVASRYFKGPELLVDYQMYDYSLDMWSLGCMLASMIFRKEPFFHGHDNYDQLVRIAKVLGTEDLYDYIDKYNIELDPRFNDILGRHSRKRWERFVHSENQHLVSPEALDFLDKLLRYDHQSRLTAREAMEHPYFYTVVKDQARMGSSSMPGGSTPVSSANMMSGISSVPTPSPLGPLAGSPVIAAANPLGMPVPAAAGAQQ
# UniProt P11362, whole entry, looked up: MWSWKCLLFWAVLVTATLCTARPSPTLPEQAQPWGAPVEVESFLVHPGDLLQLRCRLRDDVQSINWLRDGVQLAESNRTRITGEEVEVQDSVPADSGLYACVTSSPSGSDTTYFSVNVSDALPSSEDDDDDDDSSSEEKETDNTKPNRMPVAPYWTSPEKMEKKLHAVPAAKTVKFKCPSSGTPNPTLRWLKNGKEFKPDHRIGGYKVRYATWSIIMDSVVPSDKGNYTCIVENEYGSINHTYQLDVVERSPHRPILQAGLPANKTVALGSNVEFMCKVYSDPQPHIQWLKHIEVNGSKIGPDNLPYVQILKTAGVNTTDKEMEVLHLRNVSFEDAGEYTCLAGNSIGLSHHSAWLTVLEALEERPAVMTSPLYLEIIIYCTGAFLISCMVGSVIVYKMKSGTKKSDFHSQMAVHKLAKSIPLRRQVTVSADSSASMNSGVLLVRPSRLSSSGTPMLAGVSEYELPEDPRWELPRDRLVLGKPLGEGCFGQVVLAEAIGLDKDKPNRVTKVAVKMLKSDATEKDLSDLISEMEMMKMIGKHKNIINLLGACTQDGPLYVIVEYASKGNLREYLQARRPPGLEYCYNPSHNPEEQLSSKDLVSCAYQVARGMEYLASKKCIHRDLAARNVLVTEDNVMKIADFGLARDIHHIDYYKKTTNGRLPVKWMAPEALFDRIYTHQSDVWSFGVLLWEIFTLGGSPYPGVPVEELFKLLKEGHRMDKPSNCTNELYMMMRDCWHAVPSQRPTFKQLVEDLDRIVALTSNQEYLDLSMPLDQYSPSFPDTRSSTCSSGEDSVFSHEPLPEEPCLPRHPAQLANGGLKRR
# UniProt Q9UBN7: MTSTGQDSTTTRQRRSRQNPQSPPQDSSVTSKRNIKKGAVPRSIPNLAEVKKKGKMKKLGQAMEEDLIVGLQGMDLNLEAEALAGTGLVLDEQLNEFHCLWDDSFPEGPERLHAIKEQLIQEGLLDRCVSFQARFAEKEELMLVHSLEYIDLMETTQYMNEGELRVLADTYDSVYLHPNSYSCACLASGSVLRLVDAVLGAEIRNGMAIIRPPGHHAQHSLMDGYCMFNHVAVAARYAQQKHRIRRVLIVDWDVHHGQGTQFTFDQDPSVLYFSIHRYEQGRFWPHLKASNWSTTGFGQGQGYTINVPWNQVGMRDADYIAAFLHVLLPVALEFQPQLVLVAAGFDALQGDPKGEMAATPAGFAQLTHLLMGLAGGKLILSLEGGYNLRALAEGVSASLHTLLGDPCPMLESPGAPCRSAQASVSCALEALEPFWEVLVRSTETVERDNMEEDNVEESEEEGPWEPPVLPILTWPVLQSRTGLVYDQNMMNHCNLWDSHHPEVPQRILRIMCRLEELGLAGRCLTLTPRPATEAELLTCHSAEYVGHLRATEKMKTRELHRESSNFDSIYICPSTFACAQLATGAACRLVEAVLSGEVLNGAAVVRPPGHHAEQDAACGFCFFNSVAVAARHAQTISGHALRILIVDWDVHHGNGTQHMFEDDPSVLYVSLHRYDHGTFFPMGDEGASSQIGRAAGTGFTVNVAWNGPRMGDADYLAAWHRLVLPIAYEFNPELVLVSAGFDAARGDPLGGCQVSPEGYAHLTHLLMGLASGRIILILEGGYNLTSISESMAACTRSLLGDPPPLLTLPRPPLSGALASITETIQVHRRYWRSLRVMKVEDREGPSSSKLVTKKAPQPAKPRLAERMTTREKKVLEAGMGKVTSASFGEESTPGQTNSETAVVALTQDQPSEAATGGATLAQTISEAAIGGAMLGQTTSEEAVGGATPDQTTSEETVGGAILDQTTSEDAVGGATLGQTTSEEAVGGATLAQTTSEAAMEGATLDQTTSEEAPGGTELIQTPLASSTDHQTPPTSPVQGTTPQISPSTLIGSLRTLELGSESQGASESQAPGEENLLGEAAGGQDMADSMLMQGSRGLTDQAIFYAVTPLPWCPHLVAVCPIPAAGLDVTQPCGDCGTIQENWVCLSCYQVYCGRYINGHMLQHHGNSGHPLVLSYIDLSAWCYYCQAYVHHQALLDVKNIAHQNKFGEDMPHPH
# UniProt P51452: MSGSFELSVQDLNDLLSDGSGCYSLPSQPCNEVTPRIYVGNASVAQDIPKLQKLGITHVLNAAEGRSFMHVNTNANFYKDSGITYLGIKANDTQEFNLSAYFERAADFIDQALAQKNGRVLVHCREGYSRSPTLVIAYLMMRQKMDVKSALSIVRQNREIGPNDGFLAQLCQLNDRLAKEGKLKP
# “And” between values parts separate entries of the source, which are not always exact repeats. Identical values can stand only once. The inconclusive results got no clear call from the source; some entries with a clear call stand among them for comparison. Where the call is inconclusive, the potency comes from a doubtful curve fit. A structure can be active in one record and inactive in another. The source made the active and inactive calls. How the source made its calls: active means hit-call score of the fitted dose curve at least 0.9, where 1 is the maximum; inconclusive means response in the unintended direction; inactive means score below 0.9.
# Experiments:
# [1] = biological target: human Casein Kinase 1-delta (CK1D), CSNK1D (gene 1453) (UniProt P48730); assay: NVS_ENZ_hCK1D: NovaScreen (NVS) Enzymatic Assay for human Casein Kinase 1-delta (CK1D) (AID 2283148)
# In short: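 Recombinant human CK1-delta, cell-free; fluorescent substrate with electrophoretic mobility-shift separation of product, read 1 h after dosing. Single 25 uM duplicate screen, then concentration-response up to 50 uM; loss of signal vs DMSO.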
# [2] = biological target: human Caspase 8 (CASP8), CASP8 (gene 841) (UniProt Q14790); assay: NVS_ENZ_hCASP8: NovaScreen (NVS) Enzymatic Assay for human Caspase 8 (CASP8) (AID 2283146)
# In short: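 E. coli-expressed enzyme was used in a cell-free fluorogenic substrate assay read 1 h after dosing. Loss of signal was scored relative to DMSO, and the primary screen was run in duplicate at 25 uM.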
# [3] = biological target: Histone deacetylase 3 (Homo sapiens) (UniProt O15379); assay: NVS_ENZ_hHDAC3: NovaScreen (NVS) Enzymatic Assay for human Histone Deacetylase 3 (HDAC3) (AID 2283163)
# In short: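 Recombinant human HDAC3 with fluorescent substrate, 1 h after dosing; product separated from substrate by electrophoretic mobility shift and read by fluorescence. Primary screen at 25 uM in duplicate; actives (e.g. ≥30% inhibition) retested in concentration-response up to 50 uM.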
# [4] = biological target: human FYN Proto-Oncogene, Src family Tyrosine Kinase (Fyn), FYN (gene 2534) (UniProt P06241); assay: NVS_ENZ_hFyn: NovaScreen (NVS) Enzymatic Assay for human FYN Proto-Oncogene, Src family Tyrosine Kinase (Fyn) (AID 2283161)
# In short: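 Recombinant enzyme with fluorescent substrate, product separated by electrophoretic mobility shift; read 1 h after dosing. Duplicate 25 uM single-point screen, actives retested in concentration series; loss of signal vs DMSO.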
# [5] = biological target: human IkappaB Kinase alpha (IKKa), CHUK (gene 1147) (UniProt O15111); assay: NVS_ENZ_hIKKa: NovaScreen (NVS) Enzymatic Assay for human IkappaB Kinase alpha (IKKa) (AID 2283167)
# In short: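 Cell-free recombinant human IKKa with fluorescent substrate, product separated by electrophoretic mobility shift; read 1 hour after dosing. Primary screen duplicate at 25 uM, actives then concentration-response up to 50 uM; loss of signal relative to DMSO.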
# [6] = biological target: human Colony Stimulating Factor 1 Receptor (CSF1R), CSF1R (gene 1436) (UniProt P07333); assay: NVS_ENZ_hCSF1R: NovaScreen (NVS) Enzymatic Assay for human Colony Stimulating Factor 1 Receptor (CSF1R) (AID 2283150)
# In short: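 Cell-free recombinant human CSF1R kinase with fluorescent substrate, product separated by electrophoretic mobility shift; read 1 h after dosing. Primary screen at 25 uM in duplicate, actives then in concentration-response up to 50 uM, relative to DMSO.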
# [7] = biological target: human LYN Proto-Oncogene, Src family Tyrosine Kinase (LynA), LYN (gene 4067) (UniProt P07948); assay: NVS_ENZ_hLynA: NovaScreen (NVS) Enzymatic Assay for human LYN Proto-Oncogene, Src family Tyrosine Kinase (LynA) (AID 2283173)
# In short: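 Recombinant kinase with fluorescent substrate; product separated from substrate by electrophoretic mobility shift and read 1 h after dosing. Duplicate screen at 25 uM, then concentration-response up to 50 uM; activity scored as signal loss against DMSO.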
# [8] = biological target: human Ephrin type-A Receptor 2 (EphA2), EPHA2 (gene 1969) (UniProt P29317); assay: NVS_ENZ_hEphA2: NovaScreen (NVS) Enzymatic Assay for human Ephrin type-A Receptor 2 (EphA2) (AID 2283155)
# In short: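 Cell-free recombinant EphA2 kinase with specific substrate, 1 h, fluorescence with electrophoretic mobility-shift separation of substrate and product. Primary screen at 25 uM in duplicate; hits retested in singleton concentration-response up to 50 uM, referenced to DMSO.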
# [9] = biological target: human Elastase, ELANE (gene 1991) (UniProt P08246); assay: NVS_ENZ_hElastase: NovaScreen (NVS) Enzymatic Assay for human Elastase (AID 2283153)
# In short: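 Cell-free elastase from human neutrophils, 1.5 h after dosing, activity read by absorbance. Primary screen in duplicate at 25 uM; hits (e.g., 30% inhibition) rerun in singleton concentration-response up to 50 uM, fitted versus DMSO.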
# [10] = biological target: Glycogen synthase kinase-3 beta (Homo sapiens) (UniProt P49841); assay: NVS_ENZ_hGSK3b: NovaScreen (NVS) Enzymatic Assay for human Glycogen Synthase Kinase-3 beta (GSK3b) (AID 2283165)
# In short: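 Recombinant enzyme with specific fluorescent substrate, 1 h, product separated by electrophoretic mobility shift. Primary duplicate screen at 25 uM; actives (e.g. 30% inhibition) followed in singleton concentration-response to 50 uM. Signal loss fitted versus DMSO.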
# [11] = biological target: human Ephrin type-A Receptor 1 (EphA1), EPHA1 (gene 2041) (UniProt P21709); assay: NVS_ENZ_hEphA1: NovaScreen (NVS) Enzymatic Assay for human Ephrin type-A Receptor 1 (EphA1) (AID 2283158);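 further: activity is signal loss versus DMSO meaning EphA1 kinase inhibition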
# In short: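 Fluorescent substrate conversion, resolved by mobility-shift separation, measured 1 hour post-dosing using recombinant enzyme; signal loss relative to DMSO baseline. Single-concentration duplicates at 25 uM preceded singleton concentration series topping at 50 uM.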
# [12] = biological target: human Insulin Receptor (InsR), INSR (gene 3643) (UniProt P06213); assay: NVS_ENZ_hInsR: NovaScreen (NVS) Enzymatic Assay for human Insulin Receptor (InsR) (AID 2283168)
# In short: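 Fluorescent substrate phosphorylation by recombinant kinase, product resolved by electrophoretic mobility shift, read 1 h after dosing. Screened in duplicate at 25 uM; hits (e.g., 30% inhibition) run in concentration-response to 50 uM; DMSO as baseline.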
# [13] = biological target: human Janus Kinase 2 (Jak2), JAK2 (gene 3717) (UniProt O60674); assay: NVS_ENZ_hJak2: NovaScreen (NVS) Enzymatic Assay for human Janus Kinase 2 (Jak2) (AID 2283169)
# In short: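 Cell-free recombinant human JAK2 enzyme activity assay, fluorescence/electrophoretic mobility shift read 1 h after dosing. Screened in duplicate at 25 uM, then concentration-response up to 50 uM; activity as signal loss relative to DMSO.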
# [14] = biological target: human c-Jun N-terminal Kinases (JNK2), MAPK9 (gene 5601) (UniProt P45984); assay: NVS_ENZ_hJNK2: NovaScreen (NVS) Enzymatic Assay for human c-Jun N-terminal Kinases (JNK2) (AID 2283171)
# In short: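 Cell-free recombinant human JNK2 activity assay; fluorescent substrate and product separated by electrophoretic mobility shift, read 1 h after dosing. Primary duplicate screen at 25 uM; actives run in concentration-response up to 50 uM, relative to DMSO.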
# [15] = biological target: human Casein Kinase 2- alpha 2 beta 2 (CK2a2b2), CSNK2A1 (gene 1457) (UniProt P68400); assay: NVS_ENZ_hCK2a2b2: NovaScreen (NVS) Enzymatic Assay for human Casein Kinase 2- alpha 2 beta 2 (CK2a2b2) (AID 2283147)
# In short: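 Cell-free recombinant CK2 α2β2 holoenzyme with a fluorescent peptide substrate; product separated by electrophoretic mobility shift and read 1 h after dosing. Single-point screen at 25 uM in duplicate; actives were followed with concentration-response up to 50 uM versus DMSO.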
# [16] = biological target: human Esterase Plasma (ES), BCHE (gene 590) (UniProt P06276); assay: NVS_ENZ_hES: NovaScreen (NVS) Enzymatic Assay for human Esterase Plasma (ES) (AID 2283157)
# In short: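 Chemicals were added to plasma-extracted human enzyme in a cell-free format, and activity was read colorimetrically after 0.25 hour. Activity loss was referenced to DMSO; concentration-response top dose was 50 uM.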
# [17] = biological target: human Fibroblast Growth Factor Receptor 1 (FGFR1), FGFR1 (gene 2260) (UniProt P11362); assay: NVS_ENZ_hFGFR1: NovaScreen (NVS) Enzymatic Assay for human Fibroblast Growth Factor Receptor 1 (FGFR1) (AID 2283159);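 further: hits lower the signal so potencies describe inhibitors of the kinase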
# In short: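 Cell-free recombinant kinase with fluorescent substrate, product separated by electrophoretic mobility shift; read 1 hour after dosing, loss of signal relative to DMSO. Initial screen in duplicate at 25 uM, actives followed in concentration series.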
# [18] = biological target: Protein deacetylase HDAC6 (Homo sapiens) (UniProt Q9UBN7); assay: NVS_ENZ_hHDAC6: NovaScreen (NVS) Enzymatic Assay for human Histone Deacetylase 6 (HDAC6) (AID 2283164)
# In short: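 Recombinant human HDAC6 with fluorescent substrate, 1 h; product separated from substrate by electrophoretic mobility shift. Primary screen in duplicate at 25 uM; actives retested singly in concentration-response up to 50 uM, fitted relative to DMSO.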
# [19] = biological target: human Dual Specificity Protein Phosphatase 3 (DUSP3), DUSP3 (gene 1845) (UniProt P51452); assay: NVS_ENZ_hDUSP3: NovaScreen (NVS) Enzymatic Assay for human Dual Specificity Protein Phosphatase 3 (DUSP3) (AID 2283152);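 further: phosphatase activity of recombinant human DUSP3 on a fluorogenic substrate without cells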
# In short: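 Cell-free assay with recombinant human DUSP3 and fluorogenic substrate, read by fluorescence intensity. Primary screen ran duplicate at 25 uM; actives followed up in concentration series; loss of signal versus DMSO scored.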
smiles,measurement,setting,value
Cn1sc(Cl)cc1=O,AC50,[1],inconclusive: 554 nM
Oc1ccc(Cl)cc1Cc1ccccc1,AC50,[2],inconclusive: 41.7 µM
same,AC50,[1],active: 25.2 µM and active: 21.9 µM
same,AC50,[3],inconclusive: 25.2 µM
CC1=C2C[C@H]3[C@@H](CC=C4C[C@@H](O)CC[C@@]43C)[C@@H]2CC[C@]12O[C@@H]1C[C@H](C)CN[C@H]1[C@H]2C,AC50,[1],inconclusive: 669 nM
same,outcome,[4],inactive
same,AC50,[5],inconclusive: 3.29 µM
O=[N+]([O-])c1ccc(O)c([N+](=O)[O-])c1,AC50,[2],inconclusive: 45.9 µM
same,outcome,[3],inactive
N#Cc1cccnc1,AC50,[1],inconclusive: 77.4 nM
same,outcome,[6],inactive
same,AC50,[4],inconclusive: 25 µM
same,AC50,[7],inconclusive: 25 µM
Cc1ccc(N=C=O)cc1N=C=O,AC50,[2],inconclusive: 6.56 µM
CCN(CC)c1ccccc1,AC50,[1],inconclusive: 1340 nM
same,AC50,[8],inconclusive: 25 µM
Cc1ccc(-c2c(Cl)nc(C#N)n2S(=O)(=O)N(C)C)cc1,outcome,[1],inactive
same,AC50,[9],inconclusive: 25 µM
same,outcome,[8],inactive
same,AC50,[10],active: 18.2 µM
O=C(N[C@H]1CN2CCC1CC2)c1ccc2c(c1)OCCO2,AC50,[1],inconclusive: 69.2 nM
same,AC50,[8],inconclusive: 0.19 µM
same,outcome,[11],inactive
same,outcome,[4],inactive
same,AC50,[10],inconclusive: 25 µM
same,AC50,[12],inconclusive: 25 µM
same,AC50,[13],inconclusive: 25 µM
same,outcome,[14],inactive
same,outcome,[7],inactive
CCc1cnc(C2=NC(C)(C(C)C)C(=O)N2)c(C(=O)O)c1 (configuration not stated),AC50,[6],inconclusive: 15.3 µM
CCCN(CCC)c1c([N+](=O)[O-])cc(S(N)(=O)=O)cc1[N+](=O)[O-],AC50,[6],inconclusive: 0.147 µM
same,AC50,[8],inconclusive: 16.8 µM
same,AC50,[11],inconclusive: 25 µM
same,AC50,[4],inconclusive: 26.4 µM
same,AC50,[3],inconclusive: 26.4 µM
same,AC50,[10],inconclusive: 15.9 µM
same,AC50,[5],inconclusive: 26.4 µM
same,outcome,[13],inactive
same,AC50,[14],inconclusive: 26.4 µM
CCCCOC(=O)c1ccccc1C(=O)OCCCC,AC50,[15],inconclusive: 202 nM and inconclusive: 25 µM
Nc1ccc(N=Nc2ccccc2)cc1,outcome,[2],inactive
same,AC50,[3],inconclusive: 25 µM
N#CCCCCC#N,AC50,[1],inconclusive: 25000 nM
same,AC50,[6],inconclusive: 0.151 µM
same,AC50,[13],inconclusive: 25 µM
CC(C)(C)C(O)C(Oc1ccc(Cl)cc1)n1cncn1 (configuration not stated),AC50,[1],inconclusive: 410 nM
same,AC50,[16],inconclusive: 25 µM
same,AC50,[17],inconclusive: 25 µM
CCCN(CCC)N=O,outcome,[1],inactive
same,AC50,[8],inconclusive: 25 µM
same,AC50,[17],inconclusive: 25 µM
same,AC50,[13],inconclusive: 25 µM
CCNS(=O)(=O)C(F)(F)C(F)(F)C(F)(F)C(F)(F)C(F)(F)C(F)(F)C(F)(F)C(F)(F)F,AC50,[6],inconclusive: 1.29 µM
same,AC50,[18],inconclusive: 24.1 µM
same,AC50,[5],inconclusive: 5.9 µM
same,AC50,[13],inconclusive: 7.02 µM
COC(=O)c1c(C(F)F)nc(C(F)(F)F)c(C2=NCCS2)c1CC(C)C,AC50,[19],inconclusive: 2.51 µM
CCCCNC(=O)OCC#CI,AC50,[18],active: 25 µM
COc1cc(-c2ccc(N)c(OC)c2)ccc1N,outcome,[10],inactive
COc1nc(C)nc(NC(=O)NS(=O)(=O)c2ccccc2Cl)n1,AC50,[10],inconclusive: 0.38 µM
CCC(C)(NC(=O)c1cc(Cl)c(C)c(Cl)c1)C(=O)CCl (configuration not stated),AC50,[17],inconclusive: 25 µM
CC(C)C(=O)OCC(C)(C)C(OC(=O)C(C)C)C(C)C (configuration not stated),AC50,[17],inconclusive: 25 µM
same,AC50,[18],inconclusive: 4.96 µM
same,outcome,[10],inactive
CCC[CH2][Sn]([Cl])([CH2]CCC)[CH2]CCC,outcome,[4],inactive
CC(=O)[O][Hg][c]1ccccc1,AC50,[18],active: 2.32 µM
CC[C@H](C)[C@H]1O[C@]2(C=C[C@@H]1C)C[C@@H]1C[C@@H](C/C=C(\C)[C@@H](O[C@H]3C[C@H](OC)[C@@H](O[C@H]4C[C@H](OC)[C@@H](NC)[C@H](C)O4)[C@H](C)O3)[C@@H](C)/C=C/C=C3\CO[C@@H]4[C@H](O)C(C)=C[C@@H](C(=O)O1)[C@]34O)O2,AC50,[13],active: 15.4 µM
